Assay results reported in US6670183B2, “88kDa tumorigenic growth factor and antagonists” (A & G Pharmaceutical, Inc., priority 1997, dated 2003).

Test system: GP88 cell surface receptors on CCL64 cells
Experiment: ^125I-GP88 binding to CCL64 cells, Scatchard analysis
Set-up: species or system mink
Description: Recombinant GP88 (rGP88) was iodinated by the chloramine T method at 4° C. Other known methods can also be applied. Briefly, 1 μg of GP88 was incubated for 2 min with ^125I Na (100 μCi) that had been preincubated for 90 seconds with 2 μg chloramine T. The reaction was quenched with the addition of 100 μl saturated tyrosine, 10 μl of a 1% solution of bovine serum albumin (BSA) and 2 μg of sodium metabisulfite. After addition of 100 μl PBS, the iodinated protein was separated from free Na^125I by gel filtration on a Sephadex-G50 column that had been preincubated with PBS containing 1% bovine serum albumin and then extensively washed with PBS to reduce non-specific binding. The labeled proteins were eluted with PBS and fractions monitored for radioactivity. Amount of incorporated radioactivity was estimated by TCA precipitation. Specific activity of ^125I-GP88 was typically 30-50 μCi/μg. […]
The example provided here describes binding assay with the mink lung epithelial cell line CCL64 but has also been applied to several cell lines including the 1246, PC cell lines and the mammary epithelial cell line C57MG. […] The cells were harvested by centrifugation, washed with culture medium and counted with a hemocytometer. […] Cell pellets were counted with a gamma counter. […]

B1: rGP88: recombinant mouse GP88 expressed in baculovirus infected Sf9 insect cells; iodinated as binding ligand (protein)
chain: TQCPDGQFCPVACCLDQGGANYSCCNPLLDTWPRITSHHLDGSCQTHGHCPAGYSCLLTVSGTSSCCPFSKGVSCGDGYHCCPQGFHCSADGKSCFQMSDNPLGAVQCPGSQFECPDSATCCIMVDGSWGCCPMPQASCCEDRVHCCPHGASCDLVHTRCVSPTGTHTLLKKFPAQKTNSAVSLPFSVVCPDAKTQCPDDSTCCELPTGKYGCCPMPNAICCSDHLHCCPQDTVCDLIQSKCLSKNYTTDLLTKLPGYPVKEVKCDMEVSCPEGYTCCRLNTGAWGCCPFAKAVCCDDHIHCCPAGFQCHTEKGTCEMGILQVGWMKKVIAPLRLPDPQILKSDTPCDDFTRCPTNNTCCKLNSGDWGCCPIPEAVCCSDNQHCCPQGFTCLAQGYCQKGDTMVAGLEKIPARQTTPLQIGDIGCDQHTSCPVGQTCCPSLKGSWACCQLPHAVCCEDRQHCCPAGYTCNVKARTCEKDVDFIQPPVLLTLGPKVGNVECGEGHFCHDNQTCCKDSAGVWACCPYLKGVCCRDGRHCCPGGFHCSARGTKCLRKKIPRWDMFLRDPVPRPLL
For B1, which “sites/cell, high affinity class” value is on record?
Its value is 560±170 sites/cell.

And the “sites/cell, low affinity class” value?
Its value is 17,000±5900 sites/cell.
